Measurements taken from patent US20110189154A1.

Experiments:
[1] = target: T1, Tsa2 (S. cerevisiae 2-Cys peroxyredoxin) (S. cerevisiae) (UniProt Q04120); assay: copurification with 6His-Srx1, mass spectrometry
T1 sequence (looked up): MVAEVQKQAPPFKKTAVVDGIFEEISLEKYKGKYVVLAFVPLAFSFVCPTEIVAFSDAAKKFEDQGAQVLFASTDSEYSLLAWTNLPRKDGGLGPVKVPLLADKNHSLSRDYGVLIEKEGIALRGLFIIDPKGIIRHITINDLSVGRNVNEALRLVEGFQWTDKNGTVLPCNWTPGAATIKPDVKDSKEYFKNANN

[2] = target: T2, Ahp1 (S. cerevisiae 2-Cys peroxyredoxin) (S. cerevisiae) (UniProt P38013); assay: copurification with 6His-Srx1, mass spectrometry
T2 sequence (looked up): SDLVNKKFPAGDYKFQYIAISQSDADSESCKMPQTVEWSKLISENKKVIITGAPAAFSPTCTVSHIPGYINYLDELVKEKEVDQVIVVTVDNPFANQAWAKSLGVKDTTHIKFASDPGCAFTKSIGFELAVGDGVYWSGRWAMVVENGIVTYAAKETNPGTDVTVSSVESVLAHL

[3] = target: T1, Tsa2 (S. cerevisiae 2-Cys peroxyredoxin) (S. cerevisiae); assay: copurification with 6His-Srx1 on Ni-NTA, SDS-PAGE, mass spectrometry
[4] = target: T2, Ahp1 (S. cerevisiae 2-Cys peroxyredoxin) (S. cerevisiae); assay: as above
[5] = target: T3, Tsa1 (S. cerevisiae 2-Cys peroxyredoxin) (S. cerevisiae) (UniProt P34760); assay: as above
T3 sequence (looked up): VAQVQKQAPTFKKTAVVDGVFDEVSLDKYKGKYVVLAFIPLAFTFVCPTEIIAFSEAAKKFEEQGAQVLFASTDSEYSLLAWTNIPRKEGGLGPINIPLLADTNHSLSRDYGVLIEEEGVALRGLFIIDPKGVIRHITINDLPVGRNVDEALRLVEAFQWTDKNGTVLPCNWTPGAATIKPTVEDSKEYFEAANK

Measured: binding

B1: 6His-Srx1 (S. cerevisiae sulfiredoxin Srx1 with six histidines at its N-terminal end) (enzyme)
chain: HHHHHHMSLQSNSVKPTEIPLSEIRRPLAPVLDPQKIDAMVATMKGIPTASKTCSLEQAEAAASAGELPPVDVLGVRVKGQTLYYAFGGCHRLQAYDRRARETQNAAFPVRCRVLPATPRQIRMYLGSSLDIE
binds: [1] | [2] | [3] | [4] | [5]

Results are given in words; binding and its absence hold for the method and conditions named. Binding seen in cells or lysates may run through a third protein. Here binding means that the protein was enriched with, or labelled near, the bait; the list need not be complete. Tags and fused reporters may be left off the sequences shown.
